We go through two sequences from paper PMC8647145, “Foxd3 controls heterochromatin‐mediated repression of repeat elements and 2‐cell state transcription”.

By UniProt entry, the sequences of proteins in these tests, tags left out. Where a name states a change or a piece, a line headed by the entry shows the natural chain unless it says otherwise.
UniProt Q61060: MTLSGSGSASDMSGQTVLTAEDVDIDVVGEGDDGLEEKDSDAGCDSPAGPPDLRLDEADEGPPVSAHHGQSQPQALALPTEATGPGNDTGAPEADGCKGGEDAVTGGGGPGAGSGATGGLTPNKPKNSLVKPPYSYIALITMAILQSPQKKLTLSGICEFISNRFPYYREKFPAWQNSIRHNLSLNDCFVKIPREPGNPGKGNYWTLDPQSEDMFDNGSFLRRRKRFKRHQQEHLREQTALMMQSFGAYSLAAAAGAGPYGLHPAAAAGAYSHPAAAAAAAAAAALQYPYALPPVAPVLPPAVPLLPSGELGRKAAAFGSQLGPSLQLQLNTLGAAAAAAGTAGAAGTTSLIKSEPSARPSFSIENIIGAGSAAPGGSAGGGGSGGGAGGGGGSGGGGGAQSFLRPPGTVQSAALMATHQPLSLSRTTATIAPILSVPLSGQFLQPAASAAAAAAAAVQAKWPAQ

For at least one entry, the source does not settle the construct or the ends of the probe. Negatives hold for the conditions tested. At least one verdict was read from the data and is not stated in words by the source.

The target of series [1] is GST-FOXD3 M1 YSY>RAD (mouse) (UniProt Q61060). The series can be described thus: EMSA. The conditions noted are these: up to 5 uM protein, EMSA: 50 nM DNA, 20 mM Tris-HCl pH 8.0, 100 mM KCl, 3 mM MgCl2, 1 mM EDTA, 5% glycerol, 0.05% NP-40, 2 mM DTT, 50 ng/ml yeast tRNA, 2.5 ng/ml BSA, 4 C, 1 h, recombinant protein, residues 1-465, protein details: N-terminal GST (pGEX-6P1), label: 5'-Cy5.

In series [2] the target is GST-FOXD3 M2 FVK>VAM (mouse) (UniProt Q61060). The series can be described thus: EMSA. As to conditions: up to 5 uM protein, EMSA: 50 nM DNA, 20 mM Tris-HCl pH 8.0, 100 mM KCl, 3 mM MgCl2, 1 mM EDTA, 5% glycerol, 0.05% NP-40, 2 mM DTT, 50 ng/ml yeast tRNA, 2.5 ng/ml BSA, 4 C, 1 h, recombinant protein, residues 1-465, protein details: N-terminal GST (pGEX-6P1), label: 5'-Cy5. For orientation: Mobility shift assays separate free from complexed probe on a gel.

Where [3] appears, read: oligo called only MERVL, LTR presumed.

Turning to “CAGCTGTGTTCTAAGTGGTAAACAAATAATCTGCG (double strand) [MERVL-LTR]”, the binding result in series [1] (setting [3]) and in series [2] (setting [3]) was “no binding” each time.
“CTGAAAATCATGGAAAATGAGAAACATCCACTTGA (double strand) [MSR]”: the binding result in series [1] and in series [2] was “no binding” in each case.
